Results are given in words; binding and its absence hold for the method and conditions named. Some binding calls cover weakened binding; strength is not graded here.

Chains of the proteins cited; added tags and fusions are not shown.
UniProt Q8TEK3: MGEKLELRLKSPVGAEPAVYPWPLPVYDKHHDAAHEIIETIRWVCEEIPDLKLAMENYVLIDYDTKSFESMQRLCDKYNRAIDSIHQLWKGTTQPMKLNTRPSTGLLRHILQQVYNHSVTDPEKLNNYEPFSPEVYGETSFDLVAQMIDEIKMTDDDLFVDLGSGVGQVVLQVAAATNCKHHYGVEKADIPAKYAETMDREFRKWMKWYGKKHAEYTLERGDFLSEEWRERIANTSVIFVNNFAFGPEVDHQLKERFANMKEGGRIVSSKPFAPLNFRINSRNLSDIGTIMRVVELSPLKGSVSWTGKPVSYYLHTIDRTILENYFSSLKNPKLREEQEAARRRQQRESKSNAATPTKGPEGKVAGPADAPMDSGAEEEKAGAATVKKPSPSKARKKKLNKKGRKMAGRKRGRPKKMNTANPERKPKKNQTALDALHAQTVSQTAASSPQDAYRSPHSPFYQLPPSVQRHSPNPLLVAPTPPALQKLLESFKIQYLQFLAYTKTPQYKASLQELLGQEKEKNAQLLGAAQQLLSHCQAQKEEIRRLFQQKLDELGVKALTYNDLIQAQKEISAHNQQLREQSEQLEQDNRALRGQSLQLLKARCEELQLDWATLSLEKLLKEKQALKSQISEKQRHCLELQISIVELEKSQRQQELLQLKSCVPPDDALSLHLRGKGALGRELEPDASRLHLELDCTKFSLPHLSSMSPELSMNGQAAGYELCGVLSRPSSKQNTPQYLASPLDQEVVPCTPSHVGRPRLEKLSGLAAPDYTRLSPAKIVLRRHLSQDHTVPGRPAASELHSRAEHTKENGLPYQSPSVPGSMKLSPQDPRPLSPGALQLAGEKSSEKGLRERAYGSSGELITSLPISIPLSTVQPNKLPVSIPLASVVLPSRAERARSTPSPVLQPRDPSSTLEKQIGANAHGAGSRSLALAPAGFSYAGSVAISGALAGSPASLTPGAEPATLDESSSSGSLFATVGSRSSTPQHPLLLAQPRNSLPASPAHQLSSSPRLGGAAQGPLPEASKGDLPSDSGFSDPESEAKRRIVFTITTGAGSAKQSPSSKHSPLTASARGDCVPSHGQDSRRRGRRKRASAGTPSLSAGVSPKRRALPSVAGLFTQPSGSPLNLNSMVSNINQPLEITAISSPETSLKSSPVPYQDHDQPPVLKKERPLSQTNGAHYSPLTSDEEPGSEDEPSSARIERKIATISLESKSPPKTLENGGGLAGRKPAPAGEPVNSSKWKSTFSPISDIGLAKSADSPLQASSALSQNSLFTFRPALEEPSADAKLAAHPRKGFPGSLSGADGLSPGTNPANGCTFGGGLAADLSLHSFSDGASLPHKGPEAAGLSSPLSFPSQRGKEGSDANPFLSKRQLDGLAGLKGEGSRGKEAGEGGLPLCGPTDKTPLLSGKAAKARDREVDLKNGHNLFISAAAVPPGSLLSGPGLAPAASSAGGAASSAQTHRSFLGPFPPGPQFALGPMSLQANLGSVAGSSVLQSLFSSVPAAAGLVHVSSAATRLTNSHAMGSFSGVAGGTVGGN

The target in the test is TetR fusion of DOT1L (UniProt Q8TEK3). The experiment in a line: TetR recruitment to a TetO array, ChIP-qPCR; mouse ES cells with a TetO array stably expressing FS2-TetR fusion proteins; ChIP-qPCR for endogenous proteins at the TetO array; negative control 1 µg/ml doxycycline for 6 h.

B1: Enl, endogenous in mouse ES cells (protein, UniProt Q9ERL0 1-547)
chain: MDNQCTVQVKLELGHRAQLRKKPTTEGFTHDWMVFVRGPEQCDIQHFVEKVIFRLHDSFPKPKRVCKEPPYKVEESGYAGFIMLIEVYFKNKEEPRKVCFTYDLFLNLEGNPPVNHLRCEKLTFNNPTTEFRCKLLMAGGVMVMPEGADTVSRPSPDYPMLPTIPLSAFSDPKKNKPSHGSKDANKESGKASKPHKVAREHRERPRKDSESRSCSKEPEREPKSAKDAARKLPKEEKAPVPKAAFKEPKMALKETKLESLSPKGVPQPPTLPKASSKRPAATDSPKLSAKKPKKSGSKGTRRAPGTSPRASSFPDKKVARDKNSKGDKGKAESEPREAKRTLQTEDSNSEDEASFRSESAQSSPANASSSSDSSSDSDFEPSQNHSQGPLRSMVEDLQSEGSDEDDSSSGEENTGKANPGRESRLSFSDSESDNSADSCLPGREPLPPQKPPPPSSKVSGRRSPEPCSKPEKMLKKATYDKAYTDELVELHRRLMALRERNVLQQIVNLIEETGHFNVTNTTFDFDLFSLDESTVRKLQSCLEAVAT
For B1, the binding entry was “binds”.

Source of the values: PMC10457349.
